In PubChem BioAssay AID1347072 (National Center for Advancing Translational Sciences (NCATS), 2019):
In all, about 44,000 compounds went through this assay and fewer than 10 were called active. Inconclusive means that the source gave no clear call. Such entries were picked first, then a sample of the others. Calls follow the shape of the dose curve; as a rule, active = well fitted curve in the direction sought with a large enough effect; inconclusive = small, poorly fitted or top-dose-only effect, or another doubt; inactive = no such curve, though single readings can be large or run the other way. Where the call is inconclusive, the potency comes from a doubtful curve fit.

Protein sequences, listed by entry. Tags and fused reporters are not part of them. Lines headed by an entry give the natural chain unless they say otherwise; changes in a name come on top.
UniProt P51570: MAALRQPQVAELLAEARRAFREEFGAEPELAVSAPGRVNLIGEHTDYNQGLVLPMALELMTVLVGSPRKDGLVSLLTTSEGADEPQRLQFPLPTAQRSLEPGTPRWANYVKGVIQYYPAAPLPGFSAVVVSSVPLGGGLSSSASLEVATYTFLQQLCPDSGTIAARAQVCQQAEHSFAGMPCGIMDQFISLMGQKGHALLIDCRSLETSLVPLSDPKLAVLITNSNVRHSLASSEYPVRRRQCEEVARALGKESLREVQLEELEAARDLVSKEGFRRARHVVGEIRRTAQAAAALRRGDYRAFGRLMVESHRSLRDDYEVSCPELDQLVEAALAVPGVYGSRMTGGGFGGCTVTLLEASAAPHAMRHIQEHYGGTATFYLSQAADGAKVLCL

Molecular target: Galactokinase (Homo sapiens) (UniProt P51570)
Test: qHTS Assay for Inhibitors of Human Galactokinase (GALK): NCGC Sytravon Library Screen;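 as to activity, negative = inhibition: plate controls were full GALK reaction for no effect and reaction lacking GALK for full effect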
Details: recombinant GALK, Kinase-Glo ATP luminescence, 1 h; series mostly up to 57.5 µM; activity, negative = inhibition: at the top concentration
How it was run: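 Compounds were pinned into ATP buffer, then GALK-galactose mix was added (final 5 nM enzyme, 35 uM ATP, 100 uM galactose, pH 8.0). After 1 h at room temperature, Kinase-Glo Plus was added and luminescence read.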

Compound | Potency | activity, negative = inhibition
CCOc1ccc(CNS(=O)(=O)c2ccc3[nH]c4c(c3c2)CCCC4)cc1OC | inconclusive: 2000 nM [inhibitor, full curve, poor fit] | –
O=S(=O)(NCCc1nnc2ccc(SCc3c(F)cccc3Cl)nn12)c1ccccc1 | inconclusive: 1580 nM [inhibitor, full curve, poor fit] | –
CC(=O)N1c2c(cc(Br)cc2S(=O)(=O)Nc2ccccc2C)CC1C (configuration not stated) | – | inactive: 1.38%
COC(=O)c1ccccc1NC(=O)c1sc2nc(C)cc(C)c2c1NC(=O)c1ccccc1Cl | inconclusive: 7940 nM [inhibitor, partial curve, poor fit] | –
CCOc1ccc(S(=O)(=O)N(CC(=O)Nc2ccc(OC)c(Cl)c2)c2ccccc2)cc1 | inconclusive: 251 nM [inhibitor, full curve, poor fit] | –
COc1ccc(-c2noc(COc3ccc(C)cc3C)n2)cc1OC | – | inactive: 2.23%
COc1ccc(NC(=O)C2CCN(c3ccc(Sc4ccc(C)cc4)nn3)CC2)cc1 | – | inactive: -1.26%
Cc1cccc2cc(-c3nc(-c4cccs4)no3)c(=O)oc12 | inconclusive: 1000 nM [inhibitor, full curve, poor fit] | –
Cn1c(C(=O)NCc2ccccc2F)cc2cc(S(=O)(=O)N3CCCCC3)ccc21 | inconclusive: 5010 nM [inhibitor, full curve, poor fit] | –
Cc1ccc(C)c(CN2CCC(CNC(=O)Nc3ccc(Br)cc3F)CC2)c1 | – | inactive: 0.164%
O=C1CC(c2cccc(O)c2)c2c(nc(SCc3ccccc3F)[nH]c2=O)N1 (configuration not stated) | inconclusive: 8910 nM [inhibitor, partial curve, poor fit] | –
CCOC(=O)Cn1c(=O)n(CC2CCCO2)c2nc(-c3cccc(C)c3)nc(C(N)=O)c21 (configuration not stated) | inconclusive: 39800 nM [inhibitor, partial curve, poor fit] | –
CCOC(=O)C1CCCN(C(=O)C2CCN(S(=O)(=O)c3c(C)noc3/C=C/c3ccccc3F)CC2)C1 (configuration not stated) | inconclusive: 3160 nM [inhibitor, full curve, poor fit] | –
Cc1ccc(S(=O)(=O)c2nnn3c2nc(NC(C)C)c2sccc23)cc1 | inconclusive: 12600 nM [inhibitor, partial curve, poor fit] | –
CC(=O)N1CCC2(CC1)OC(=O)C(C)=C2C(=O)Nc1cc(C)ccc1C | inconclusive: 1580 nM [inhibitor, full curve, poor fit] | –
Cc1ccc(C)c(Cn2c3ccccc3c3cnn(CC(=O)NC4CCC(C)CC4)c(=O)c32)c1 (configuration not stated) | – | inactive: 1.13%
CC1CCC(NC(=O)CCc2cn(Cc3ccccc3Cl)c3ccccc23)CC1 (configuration not stated) | inconclusive: 1780 nM [inhibitor, full curve, poor fit] | –
COc1ccc(-c2nc(CSc3nnc(C)n4c3cc3occc34)c(C)o2)cc1OC | inconclusive: 1120 nM [inhibitor, full curve, poor fit] | –
COc1ccc(NC(=O)CSc2ccc3nc(-c4ccccc4)cn3n2)c(OC)c1 | inconclusive: 31600 nM [inhibitor, partial curve, poor fit] | –
COc1ccc(NC(=O)CCCN2C(=O)C(c3ccccc3)Oc3cccnc32)c(OC)c1 (configuration not stated) | inconclusive: 708 nM [inhibitor, full curve, poor fit] | –
Cc1ccccc1Nc1c(-c2ccc(N3CCOCC3)cc2)nc2ccccn12 | inconclusive: 15800 nM [inhibitor, partial curve, poor fit] | –

5 entries from above, ordered by heavy-atom count, high to low:
Compound | Potency | activity, negative = inhibition
COc1ccc(NC(=O)CCCN2C(=O)C(c3ccccc3)Oc3cccnc32)c(OC)c1 (configuration not stated) | inconclusive: 708 nM [inhibitor, full curve, poor fit] | –
O=S(=O)(NCCc1nnc2ccc(SCc3c(F)cccc3Cl)nn12)c1ccccc1 | inconclusive: 1580 nM [inhibitor, full curve, poor fit] | –
COc1ccc(NC(=O)CSc2ccc3nc(-c4ccccc4)cn3n2)c(OC)c1 | inconclusive: 31600 nM [inhibitor, partial curve, poor fit] | –
CC(=O)N1CCC2(CC1)OC(=O)C(C)=C2C(=O)Nc1cc(C)ccc1C | inconclusive: 1580 nM [inhibitor, full curve, poor fit] | –
COc1ccc(-c2noc(COc3ccc(C)cc3C)n2)cc1OC | – | inactive: 2.23%

The list continues:

Compound | Potency | activity, negative = inhibition
O=C(Cn1nc(C(F)(F)F)c2c1CCCC2)Nc1ccc(Br)cc1 | inconclusive: 282 nM [inhibitor, full curve, poor fit] | –
O=S(=O)(c1ccccc1)c1nnn2c1nc(NC1CCCCC1)c1sccc12 | inconclusive: 3550 nM [inhibitor, full curve, poor fit] | –
COCCNC(=O)CSc1nc(-c2cc(OC)c(OC)c(OC)c2)[nH]c1-c1ccc(Cl)cc1 | inconclusive: 1410 nM [inhibitor, full curve, poor fit] | –
COc1cccc2cc(C(=O)Nc3ccc(F)c(F)c3)c(=O)oc12 | inconclusive: 39800 nM [inhibitor, single point] | –
Fc1cccc(Cl)c1CNCCSc1nnnn1-c1ccccc1 | inconclusive: 28200 nM [inhibitor, partial curve, poor fit] | –
Cc1nc2c(-c3ccccc3)c(C)nn2c(C)c1CCC(=O)Nc1ccccc1F | – | inactive: 8.94%
Cc1nc(NC(=O)c2c(-c3ccccc3)c(-c3ccccc3)nn(C)c2=O)sc1C | inconclusive: 39800 nM [inhibitor, partial curve, poor fit] | –
CC(C)(C)c1ccc(Oc2ccc(NC(=O)CCC(=O)OCC(=O)c3ccccc3)cc2)cc1 | inconclusive: 199 nM [inhibitor, full curve, poor fit] | –
Cc1cc(C)c2c(-n3cccc3)c(C(=O)NCc3cccc(F)c3)sc2n1 | inconclusive: 891 nM [inhibitor, full curve, poor fit] | –
CCOC(=O)c1ccc(CSc2nnc3cc(C)c4ccccc4n23)cc1 | inconclusive: 5620 nM [inhibitor, full curve, poor fit] | –
CC(=O)c1[nH]c(C)c(C(=O)NCCc2ccc(C)cc2)c1C | – | inactive: 1.33%
O=C1c2oc3ccc(F)cc3c(=O)c2C(c2cccc([N+](=O)[O-])c2)N1CCCN1CCOCC1 (configuration not stated) | inconclusive: 141 nM [inhibitor, full curve, poor fit] | –
COc1ccccc1-c1nc2c(c(SCc3ccc(F)cc3Cl)n1)Cc1c(CO)cnc(C)c1O2 | inconclusive: 1120 nM [inhibitor, full curve, poor fit] | –
COc1ccccc1N1CCN(CCCNC(=O)c2nnc(Cc3c(F)cccc3Cl)o2)CC1 | – | inactive: -7.1%
COC(=O)c1ccc(NC(=O)CSc2nc3c(c(=O)n(C)c(=O)n3C)n2Cc2ccccc2)cc1 | inconclusive: 35500 nM [inhibitor, single point] | –
Cc1cc(Nc2cccc(C(F)(F)F)c2)nc2ccc(NC(=O)c3cccnc3)cc12 | – | inactive: 1.61%
CSc1ccc(NC(=O)Cn2nnnc2-c2ccccc2F)cc1 | inconclusive: 39800 nM [inhibitor, partial curve, poor fit] | –
CCOC(=O)c1cccc(NC(=O)Nc2ccc3c(c2)N(C)C(=O)c2ccccc2S3)c1 | inconclusive: 1120 nM [inhibitor, full curve, poor fit] | –
CCCNC(=O)c1c(NC(=O)c2ccc(C)cc2)sc2c1CCCCC2 | inconclusive: 631 nM [inhibitor, full curve, poor fit] | –
OCCN1CCN(c2ncnc3c2cnn3-c2cccc(Cl)c2)CC1 | – | inactive: -0.282%
COc1cccc(CNC(=O)Nc2cn(CC(C)C)c(=O)c3ccccc23)c1 | – | inactive: 0.235%

Compound | Potency | activity, negative = inhibition
CCc1ccc(NCc2cc3cc4c(cc3n(CC(=O)Nc3ccc(OC)cc3)c2=O)OCO4)cc1 | inconclusive: 3160 nM [inhibitor, full curve, poor fit] | –
CCCN1CCN(c2ncnc3sc(C(=O)Nc4ccc(OC(F)(F)F)cc4)c(C)c23)CC1 | – | inactive: 3.43%
Cc1cc(C)cc(NC(=O)CSc2nccn2C2CCCC2)c1 | inconclusive: 631 nM [inhibitor, full curve, poor fit] | –
Cc1nc(-c2ccccc2)sc1-c1ccc(SCC(=O)Nc2ccccc2)nn1 | inconclusive: 631 nM [inhibitor, full curve, poor fit] | –
Cc1c(C(=O)N2CCCC2)oc2c1-c1nn(CC(=O)NCc3ccccc3F)cc1CC2 | inconclusive: 1000 nM [inhibitor, full curve, poor fit] | –
CCOc1ccccc1CNC(=O)c1ccc2c(c1)nc1n2CCCCC1 | inconclusive: 22400 nM [inhibitor, partial curve, poor fit] | –
CCc1nonc1NC(=O)c1oc2ccc(C)cc2c1C | – | inactive: 7.12%
CC(Oc1ccc(Br)cc1)C(=O)Nc1ncn[nH]1 (configuration not stated) | – | inactive: 7.87%
CSC1=NC2(CCN(C(=O)NC3CCCCC3)CC2)N=C1c1ccc(C)cc1 | inconclusive: 398 nM [inhibitor, full curve, poor fit] | –
COc1ccc(N2CCN(c3csc4ccc(Cl)cc4c3=O)CC2)cc1 | – | inactive: -3.99%
CCOc1ccccc1NC(=O)C(CC(C)C)NS(=O)(=O)c1ccc2c(c1)oc(=O)n2C (configuration not stated) | – | inactive: 1.34%
CCOc1ccc(NC(=O)CN2C(=O)CC(C)Sc3ccccc32)cc1 (configuration not stated) | inconclusive: 2240 nM [inhibitor, partial curve, poor fit] | –
O=C(NCc1ccccc1)c1cc2sccc2n1Cc1ccc(Cl)cc1 | – | inactive: 8.05%
Cc1ccc(C)c(S(=O)(=O)c2nnn3c2nc(Nc2ccc(C)c(C)c2)c2sccc23)c1 | inconclusive: 1580 nM [inhibitor, partial curve, poor fit] | –
CCOC(=O)c1ccc(-n2c(CCC(=O)O)ccc2-c2ccc(Br)cc2)cc1 | inconclusive: 1000 nM [inhibitor, full curve, poor fit] | –
COc1cc2c(C(=O)N3CCN(c4cccc(C(F)(F)F)c4)CC3)cn(CC(C)C)c(=O)c2cc1OC | – | inactive: -0.0854%
Cc1cc(C)cc(-n2c(C)cc(C(=O)C(=O)Nc3nnc(C)s3)c2C)c1 | inconclusive: 1120 nM [inhibitor, full curve, poor fit] | –
O=C(NCc1cccc(Cl)c1)c1ccc2nc(N3CCCCC3)sc2c1 | – | inactive: -3.4%
CN(Cc1ccccc1)S(=O)(=O)c1nnc(NC(=O)c2cccc(Cl)c2)s1 | – | inactive: 0%
N#C/C(=C\c1ccc(-c2ccc(C(=O)O)cc2)o1)C(=O)Nc1ccccc1C(=O)O | inconclusive: 8910 nM [inhibitor, partial curve, poor fit] | –
